The whole screen tested about 52,000 sequences, of which about 210 (0.4%) were called active.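 The calls were made as follows: active = gene whose silencing raises cell survival under the drug, median off-target-corrected z-score across its silencing RNAs 2 or more; inactive = the rest.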 Some of the results follow.
test: Resistance to Poly (ADP-Ribose) Polymerase inhibitor: Gene Identification via Genome-wide siRNA Screen; conditions: mouse BRCA2 R2336H ES cells, olaparib, CellTiter-Glo viability; stronger effect = higher value
In short: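 Genome-wide siRNA screen (3 siRNAs/gene, 20 nM) in mouse ES cells carrying hypomorphic BRCA2 R2336H; olaparib 500 nM added 48 h post-transfection, CellTiter-Glo viability 72 h later. Normalized to plate-median negative control; MAD z-scores, gene median, seed-adjusted.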

Row | Sequence | z-score
1 | GGAAGACCCUUCUUAUGACTT against Fli1 | inactive: 0.174
2 | CCCUCAAGGAUUUAGCCAUTT against D030014N22Rik | inactive: 0.919
3 | GGAAUUUGAAGCUGUCACUTT against Spata2 | inactive: -1.71
4 | GGCUGGUUGGAAGGAAAAUTT against 6330505F04Rik | inactive: -1.69
5 | GGUCUUAGAUAAUGUUAGATT against Gpr26 | inactive: 0.245
6 | GGAGUGCACUGGAAAACACTT against Rasef | inactive: -0.451
7 | GGUGUUUAAAUACAACCGATT against Ptgis | inactive: 2.23
8 | GCUUUCUGGGUAACAUAGGTT against 4933400K24Rik | inactive: 1.54
9 | GGCCAAUGAAGACCCAGAATT against 4930467B06Rik | inactive: 1.96
10 | GGACAGGAAGGUCAUCCCUTT against Sntb2 | inactive: 2.67
11 | GCAUCUUCCACAUUCGCUCTT against Olfr945 | inactive: 0.597
12 | GGAGUGGUCUGACAGAAGATT against AU040950 | inactive: 0.12
13 | GGAUCAGGUACACAGCAAGTT against Dci | inactive: -0.154
14 | CCCUCUGUUCGAGAAGAGGTT against Rpl7a | inactive: -2.82
15 | GGUGUACCCAGUACUGCCATT against Cdk2 | inactive: -0.498
16 | CGUGUUUGAUCACUACUCUTT against 1810019A08Rik | inactive: -1.66
17 | GGAGGAAGCCAUCAUCAUGTT against Grim19 | inactive: -1.04
18 | CCUCGAGAGACUCAUACUGTT against Card12 | inactive: 0.979
19 | GGUGAGAAGGAUUUGUAAATT against Clecsf8 | inactive: 0.0846
20 | CCGUAAUUUACCAAAGAGATT against 1110007A13Rik | inactive: 0.906
21 | GGCAUUUUUCGGAUUGACATT against Mmp27 | inactive: 0.756
22 | CCUGCCAGAGCCGGAAUUUTT against Nrp | inactive: 0.736
23 | GGACAUUGCUGCCUAUAUCTT against 6720463E02Rik | inactive: 0.793
24 | GGUGAUCCUAAGAAAGUCCTT against Ireb2 | inactive: 0.396
25 | GCACUCCAAGAUAUUAUGUTT against BC045600 | inactive: 0.909
26 | GGUGGUUGGUGGGUAUUUATT against Slc30a3 | inactive: 0.0476
27 | GGCUAAAAAGAGUAGACUATT against Irs1 | inactive: 0.45
28 | CACCUAAACCCAUUCCAGUTT against Dpm3 | inactive: 0.523
29 | GGAUGAACAUCAAAGAAGATT against Lace1 | inactive: 0.897

A different layout for some results above.
Row	Sequence	z-score
5	GGUCUUAGAUAAUGUUAGATT against Gpr26	inactive: 0.245
6	GGAGUGCACUGGAAAACACTT against Rasef	inactive: -0.451

Source: PubChem BioAssay AID1347423 (Functional Genomics Laboratory (NCATS/FGL), 2020)
